# PubChem BioAssay AID686943 – Drosophila RNAi Screening Center | 2013
# Screen: 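Fly genes whose loss alters ERK activation after insulin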 (primary screen)
# System: Drosophila S2R+ haemocyte-like cells expressing YFP-tagged ERK (Rolled)
# Reagents: long dsRNA against Drosophila genes
# Treatment: insulin stimulation versus unstimulated cells; dose and duration not given
# Measurement: 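Antibody staining for doubly phosphorylated ERK divided by ERK-YFP signal, as plate z-scores, in insulin-treated and untreated cells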
# Reading the numbers: replicate 1, z-score of dpERK with insulin and replicate 2, z-score of dpERK with insulin: higher = more active ERK per ERK-YFP after insulin; replicate 1, z-score of dpERK under basal conditions: higher = more basal active ERK per ERK-YFP; replicate 1, z-score of ERK-YFP with insulin: higher = more YFP-tagged ERK signal
# The screen tested about 23,000 reagents; this is an unselected part of those that have a named target and a result. 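Extra replicates exist only for a retested subset of genes; insulin dose and duration not given; both raised and lowered dpERK matter.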 Names joined by + are all predicted targets of the reagent. Not given: the amount of reagent, the time to read-out.
Gene,DRSC id,"replicate 1, z-score of dpERK with insulin","replicate 2, z-score of dpERK with insulin","replicate 1, z-score of dpERK under basal conditions","replicate 1, z-score of ERK-YFP with insulin"
dock,DRSC00812,-1.4,-1.87,-0.26,1.52
CG11586,DRSC08203,-0.45,-0.02,0.32,0.61
CG14443,DRSC17936,0.1,0.67,0.79,0.35
Fit1,DRSC08450,0.08,1.03,-0.72,0.21
CG14495,DRSC06466,0.04,0.56,0.86,0.54
CG15249,DRSC17978,0.9,0,0.04,-0.02
Pka-R2,DRSC07509,0.5,0.63,1.24,0.46
PNKP,DRSC16512,-0.36,-0.75,1.12,0.54
pim,DRSC03591,-1.71,-0.65,-1.32,-3.33
Gld,DRSC12595,0.38,0.85,-0.56,-0.01
CG2540,DRSC19856,0.68,0.24,0.13,0.01
CG14257,DRSC14752,0.16,1.42,0.2,-0.44
CG13587,DRSC04223,-0.47,0.4,-0.74,0.27
Arp1,DRSC14118,-0.31,-0.38,-0.05,0.17
shop,DRSC20030,0.19,-0.35,-0.19,-0.27
Tsp47F,DRSC07325,-1.08,-1.27,-2,-0.78
CG32066,DRSC10652,0.49,0.34,0.32,0.27
CG32066,DRSC10653,0.21,0.82,0.68,0.25
CG6701,DRSC07007,-5.23,-4.83,-0.36,-0.29
kuz,DRSC03555,-0.85,-1.18,-0.11,0.37
RabX2,DRSC18234,-0.36,-1.31,0.27,0.33
CG42656,DRSC12472,1.89,0.34,-1.05,-0.28
CG15522,DRSC15059,-0.06,0.02,-0.44,-0.03
CG9173,DRSC08635,-0.38,0.45,-1.24,0.08
ECSIT,DRSC12348,-0.22,-0.46,0.03,0.2
Pex3,DRSC10731,0.05,-0.61,0.36,0.5
CG3594,DRSC04393,1.03,0.7,-1.02,-0.54
CG3594,DRSC21959,0.87,-0.56,1,1.02
chas,DRSC19508,0.58,0.06,1.44,-0.04
chas,DRSC19509,0.45,0.31,0.94,0.11
Mhc,DRSC03367,-0.06,0.82,0.12,-0.98
SmD1,DRSC09800,1.11,1.1,2.4,-2.11
CR43105,DRSC05547,-1.62,-1.45,-0.89,-0.65
CG10486,DRSC09735,-1.02,-1.29,1.07,0.42
CG9662,DRSC00723,0.04,0.57,0.81,-0.06
RhoGAP100F,DRSC15409,-0.23,-0.28,0.23,-2.13
Mon1,DRSC00336,-0.27,-0.54,0.62,0.15
msps,DRSC17004,-0.52,-0.46,0.45,-0.42
mip120,DRSC06960,-0.77,-0.72,3.03,0.19
Tango4,DRSC19786,1.3,2.76,-0.66,-0.43
TwdlL,DRSC16042,1.39,1.4,0.14,-0.19
Art4,DRSC15779,1.72,0.64,0.29,-0.3
Cyt-b5-r,DRSC03308,0.92,0.46,0.62,-0.22
Ada,DRSC14463,1.52,0.8,1.52,-0.65
CG12084,DRSC08247,0.01,0.62,0.98,0.36
GAA1,DRSC18267,0.76,0.53,1.37,-0.3
Ubc2,DRSC01137,-0.46,0.2,0.74,0.76
Ubc2,DRSC03468,-1.89,-0.8,0.24,0.81
cpx,DRSC11999,0.8,0.55,-0.05,-0.26
PolD1,DRSC11138,0.25,0.72,1.03,0.17
klar,DRSC08718,0,-1.14,0.54,0.02
klar,DRSC22393,-0.27,-0.28,0.32,0.6
ATPsynB,DRSC09659,-0.89,0.71,-1.51,1.38
ND-SGDH,DRSC11102,-0.39,0.53,-0.3,0.69
CR43096 + CG43060,DRSC12654,0.64,1.01,1.03,0.45
CaMKI,DRSC17162,-0.78,-1.44,-0.45,0.61
olf186-M,DRSC07657,-0.5,-0.64,1.34,0.15
CG7772,DRSC20056,0.04,0.82,-0.41,-0.55
CG4960,DRSC15684,-0.23,-0.03,-1.01,-1.05
Bicra,DRSC14417,-0.1,0,0.8,-1.03
Cht5,DRSC16470,0.58,-0.07,-0.49,0.46
sav,DRSC14681,0.62,-0.25,-0.71,0.13
sav,DRSC14682,-0.03,-0.11,-0.05,0.36
bnk,DRSC16912,0.42,-0.1,0.73,0.25
mal,DRSC20581,0.72,-0.11,-0.44,0.21
CG15864,DRSC15122,-0.04,-0.35,0.02,-0.29
Spx,DRSC18720,0.11,0.24,-2.25,-3.56
Mic26-27,DRSC15913,0.29,-0.04,0.06,1.31
stw,DRSC04842,-0.07,-0.11,0.02,0.4
stw,DRSC04843,1.23,0.33,0.53,0.1
stw,DRSC22527,0.29,0.38,0.07,-0.74
Ugt37B1,DRSC03225,0.52,-0.02,0.22,1.22
CG8907,DRSC16453,0.1,-0.17,0.3,0.13

8 entries from above, arranged by “replicate 2, z-score of dpERK with insulin”, low to high:
Gene,DRSC id,"replicate 1, z-score of dpERK with insulin","replicate 2, z-score of dpERK with insulin","replicate 1, z-score of dpERK under basal conditions","replicate 1, z-score of ERK-YFP with insulin"
Tsp47F,DRSC07325,-1.08,-1.27,-2,-0.78
pim,DRSC03591,-1.71,-0.65,-1.32,-3.33
Arp1,DRSC14118,-0.31,-0.38,-0.05,0.17
shop,DRSC20030,0.19,-0.35,-0.19,-0.27
CG2540,DRSC19856,0.68,0.24,0.13,0.01
CG13587,DRSC04223,-0.47,0.4,-0.74,0.27
Gld,DRSC12595,0.38,0.85,-0.56,-0.01
CG14257,DRSC14752,0.16,1.42,0.2,-0.44
